Measured values: publication PMC5389854
Construct, isoform or probe ends are uncertain for at least one entry.

Protein sequences, listed by entry. Tags and fused reporters are not part of them.
UniProt K7K6B8, entry or part of it: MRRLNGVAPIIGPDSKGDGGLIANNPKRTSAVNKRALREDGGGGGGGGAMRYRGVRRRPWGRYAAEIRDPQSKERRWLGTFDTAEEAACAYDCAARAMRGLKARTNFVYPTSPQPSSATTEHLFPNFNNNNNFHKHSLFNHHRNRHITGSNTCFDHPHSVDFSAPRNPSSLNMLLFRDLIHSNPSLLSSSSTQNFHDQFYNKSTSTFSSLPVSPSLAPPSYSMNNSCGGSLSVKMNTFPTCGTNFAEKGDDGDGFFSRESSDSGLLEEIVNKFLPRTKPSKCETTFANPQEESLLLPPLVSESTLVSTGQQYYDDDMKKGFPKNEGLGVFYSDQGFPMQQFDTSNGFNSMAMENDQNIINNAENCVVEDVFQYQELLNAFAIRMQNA

Tests used:
[1] = biological target: GmESR1 (Glycine max cv. Dongnong 50) (UniProt K7K6B8); assay: competition with a labelled probe; conditions: 100-fold unlabeled versus labeled GCC-box probe, labeled probe not bound; EMSA as in Kass et al. (2000); pH and temperature not stated; recombinant protein; protein details: His (pET-29b)
[2] = biological target: GmESR1 (Glycine max cv. Dongnong 50) (UniProt K7K6B8); assay: EMSA; conditions: EMSA as in Kass et al. (2000); pH and temperature not stated; recombinant protein; protein details: His (pET-29b); label: digoxigenin-ddUTP

Sequence	binding result [1]	binding result [2]
ATCCATAAGAGCCGCCACTAAAATAAGACCGATCAA / TTGATGGTCTTATTTTAGTGGCGGCTCTTATGGAT [unlabeled GCC-box competitor]	binds	
ATCCATAAGAGCCGCCACTAAAATAAGACCGATCAA / TTGATGGTCTTATTTTAGTGGCGGCTCTTATGGAT [GCC-box probe]		binds
